Experimental data from patent US20130108641A1.
No constants are given. Whether binding was seen depends on the method and setting. Binding calls can cover weak binding; strength is not graded here.

Target: cynomolgus monkey GITR on PBMCs (cynomolgus monkey)
Experiment: FACS, Alexa488-labelled antibody on PHA-stimulated cynomolgus monkey PBMCs

B1: anti-GITR antibody clone 1718 (antibody, V domains shown)
VH: QVQVQQSGPELVKPGASVRISCKASDYTFTNYYIHWVRQRPGQGLEWLGWIYPGKGYTNYNEKFKGKATLTADKSSSTAYMQFSSLTSEDSAVYFCASGYGNYYFPYWGQGTLVTVSA
VL: IQMTQSSSYLSVSLGGRVTITCKASDHIKNWLAWYQQKPGNVPRLLMSAATSLETGFPSRFSGSGSGKDFTLTITSLQTEDVATYYCQQYWSTPWTFGGGTKLEIK
binding: binds
